Some entries share one result that the patent states for a list of compounds. For at least one compound, name, drawing or mass did not settle the structure.
Tested on: cell lysate phosphatases
Assay: Inhibition of phosphatase activity of cell lysate (PNPP substrate)
Assay type: biochemical
Settings: 50 μM, 50 mM PNPP, 90 minutes at 37° C., pH 7.4
Method: Inhibition of phosphatase activity of cell lysate by cyclic phosphates was assayed in 1.0 ml of 50 mM Tris-HCl buffer, pH 7.4, containing 50 mM p-nitrophenyl phosphate, PNPP, as a substrate. Reaction was initiated by the addition of crude cell lysate (100 μg/ml final protein concentration) and terminated after 90 minutes at 37° C. by an addition of 50 μl of 1M NaOH. […] Assays were conducted under the same conditions as above in the presence of 50 μM cyclic phosphate. The enzyme activity in the absence of inhibitor was taken as 100% activity.

Compound | inhibition of cell lysate phosphatase activity
O=P(O)(O)OCC(O)CO (stereo in doubt) [αGP, L-α-glycerophosphate, reference compound] | less than 5%
O=P(O)(O)OC(CO)CO [βGP, β-Glycerophosphate, reference compound] | less than 5%

From US6872712B1, “Cyclic glycerophosphates and analogs thereof” (Yeda Research and Development Co. Ltd., priority 1999, dated 2005)
